Reference: patent US20130149320A1 (CENTRE NATIONAL DE LA RECHERCHE SCIENTIFIQUE, published 2013)
Results are given in words; binding and its absence hold for the method and conditions named. In cells and extracts the contact can be indirect. Some results given as binding are weak or reduced against the parent protein; the word gives no strength.

Sequences of proteins named here, by UniProt entry; tags and fusion partners are left off. A change or cut given only in a name is not applied to a line headed by its entry.
UniProt Q69DB9: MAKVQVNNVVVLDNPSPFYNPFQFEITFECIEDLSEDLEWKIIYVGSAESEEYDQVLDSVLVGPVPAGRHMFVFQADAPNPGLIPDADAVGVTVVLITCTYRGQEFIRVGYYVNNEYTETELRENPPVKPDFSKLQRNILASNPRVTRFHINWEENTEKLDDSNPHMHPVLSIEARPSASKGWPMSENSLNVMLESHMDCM
UniProt P54198: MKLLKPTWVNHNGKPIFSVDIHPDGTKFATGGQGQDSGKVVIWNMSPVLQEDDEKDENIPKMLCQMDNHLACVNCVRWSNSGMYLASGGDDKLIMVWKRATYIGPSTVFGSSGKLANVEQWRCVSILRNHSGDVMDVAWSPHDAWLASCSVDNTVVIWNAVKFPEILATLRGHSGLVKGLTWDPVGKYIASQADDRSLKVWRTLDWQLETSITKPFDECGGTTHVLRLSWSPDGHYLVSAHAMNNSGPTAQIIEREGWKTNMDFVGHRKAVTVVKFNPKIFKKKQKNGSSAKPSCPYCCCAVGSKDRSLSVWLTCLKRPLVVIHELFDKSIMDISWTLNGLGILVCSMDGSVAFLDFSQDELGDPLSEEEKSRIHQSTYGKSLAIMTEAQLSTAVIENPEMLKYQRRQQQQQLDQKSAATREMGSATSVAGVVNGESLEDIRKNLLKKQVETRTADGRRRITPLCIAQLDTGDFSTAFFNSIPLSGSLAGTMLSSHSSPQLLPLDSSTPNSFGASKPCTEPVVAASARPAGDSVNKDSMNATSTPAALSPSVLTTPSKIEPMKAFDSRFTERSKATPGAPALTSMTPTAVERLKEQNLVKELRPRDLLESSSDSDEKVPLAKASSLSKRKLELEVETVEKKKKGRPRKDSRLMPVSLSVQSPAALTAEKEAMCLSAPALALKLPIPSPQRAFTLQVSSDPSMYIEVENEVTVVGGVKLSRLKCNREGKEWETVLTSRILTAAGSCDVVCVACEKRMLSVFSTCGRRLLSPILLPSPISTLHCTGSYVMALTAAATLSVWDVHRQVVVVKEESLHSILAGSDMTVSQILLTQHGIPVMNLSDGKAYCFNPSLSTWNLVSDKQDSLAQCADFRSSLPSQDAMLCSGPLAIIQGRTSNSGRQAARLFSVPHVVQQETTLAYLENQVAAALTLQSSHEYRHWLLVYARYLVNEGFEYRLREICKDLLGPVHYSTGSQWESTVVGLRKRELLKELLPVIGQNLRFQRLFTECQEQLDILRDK
UniProt Q9Y294: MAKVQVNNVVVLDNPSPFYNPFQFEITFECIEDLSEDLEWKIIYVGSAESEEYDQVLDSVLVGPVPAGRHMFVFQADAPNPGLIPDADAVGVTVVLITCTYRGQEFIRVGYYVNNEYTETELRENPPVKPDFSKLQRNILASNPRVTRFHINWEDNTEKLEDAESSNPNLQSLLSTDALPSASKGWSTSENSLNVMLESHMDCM

Key:
[1] = biological target: Asf1 from Xenopus laevis (endogenous, high speed egg extract) (Xenopus laevis) (UniProt Q69DB9); assay: GST pull-down on Xenopus egg extract (HSE), Western blot
human HIRA (human) = human HIRA (human) (UniProt P54198); assay: co-immunoprecipitation from HeLa S3 total cell extracts, Western blot

Row | binding [1] | binding (human HIRA (human)) | Substance
1 | binds | – | recombinant GST HIRA B-domain (Xenopus laevis HIRA amino acid 435 to 480) (from UniProt P54198 435-480)
2 | – | binds | human Asf1a (Anti-silencing function 1a) (from UniProt Q9Y294 1-204)
